# According to the supplement of paper PMC4635364:
# Structures can show the parent of a compound that is named as a salt. This is one part of the list. This data set is noisy: repeats of one test often differ as much as different tests do.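 Cells: ReNCell VM human fetal ventral-midbrain neural progenitors, differentiated mitogen-free. Blinded raters compared doublecortin-stained (early neurons) or tyrosine hydroxylase-stained (dopaminergic neurons) images with untreated wells, where 0 means no change. After repeats and both raters were averaged, compounds scoring 2 or above became hits for retesting.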
# Legend:
# ReNCell VM [1] = experiment: neuronal differentiation score (DCX+ cell fraction vs untreated, manual image score) (score (-3 to 3)); higher = more neuronal differentiation; conditions: 2 uM, 2 weeks
# ReNCell VM [2] = experiment: dopaminergic neuron differentiation score (TH+ cell fraction vs untreated, manual image score) (score (0 to 3)); higher = more TH+ dopaminergic neuron differentiation; conditions: 2 uM, 4 weeks, BDNF 10 ng/ml + GDNF 10 ng/ml
smiles,measurement,setting,value
COc1ccc(Cl)cc1C(=O)NCCc1ccc(S(=O)(=O)NC(=O)NC2CCCCC2)cc1 [Glybenclamide],neuronal differentiation score,ReNCell VM [1]; library: LOPAC,inactive: 0
same,dopaminergic neuron differentiation score,ReNCell VM [2]; library: LOPAC,inactive: 1
CN(C)CCC(c1ccc(Br)cc1)c1ccccn1 (configuration not stated),neuronal differentiation score,ReNCell VM [1]; library: Spectrum,inactive: 0
same,dopaminergic neuron differentiation score,ReNCell VM [2]; library: Spectrum,inactive: 0
CCCCC(=O)O[C@]1(C(=O)CO)CC[C@H]2[C@@H]3CCC4=CC(=O)CC[C@]4(C)[C@H]3[C@@H](O)C[C@@]21C,neuronal differentiation score,ReNCell VM [1]; library: Spectrum,inactive: 0
same,dopaminergic neuron differentiation score,ReNCell VM [2]; library: Spectrum,inactive: 0
CC(=O)NCCc1c(Cc2ccccc2)[nH]c2ccccc12 [Luzindole],neuronal differentiation score,ReNCell VM [1]; library: Tocriscreen,inactive: 0
same,dopaminergic neuron differentiation score,ReNCell VM [2]; library: Tocriscreen,inactive: 0
C[C@]12CCC(=O)C=C1CC[C@@H]1[C@@H]2[C@@H](O)C[C@@]2(C)[C@H]1CC[C@]2(O)C(=O)COC(=O)CCC(=O)O [Hydrocortisone 21-hemisuccinate sodium],neuronal differentiation score,ReNCell VM [1]; library: LOPAC,inactive: 0
same,dopaminergic neuron differentiation score,ReNCell VM [2]; library: LOPAC,inactive: 0
Clc1ccc(C(Cn2ccnc2)OCc2csc3c(Cl)cccc23)c(Cl)c1 (configuration not stated) [Sertaconazole nitrate],neuronal differentiation score,ReNCell VM [1]; library: Prestwick,inactive: 0
same,dopaminergic neuron differentiation score,ReNCell VM [2]; library: Prestwick,inactive: 0
CC(=O)NS(=O)(=O)c1ccc(N)cc1,neuronal differentiation score,ReNCell VM [1]; library: Spectrum,inactive: 1
same,dopaminergic neuron differentiation score,ReNCell VM [2]; library: Spectrum,inactive: 0
COc1ccc([C@@H]2[C@@H](O)[C@H](O)[C@@H](C)N2C)cc1OC [codonopsine],neuronal differentiation score,ReNCell VM [1]; library: Natural,inactive: 0
same,dopaminergic neuron differentiation score,ReNCell VM [2]; library: Natural,inactive: 0
CO[C@@]12[C@H](COC(N)=O)C3=C(C(=O)C(C)=C(N)C3=O)N1C[C@@H]1N[C@@H]12 [mitomycin C],neuronal differentiation score,ReNCell VM [1]; library: Natural,inactive: 0
same,dopaminergic neuron differentiation score,ReNCell VM [2]; library: Natural,inactive: 0
CC[C@H](/C=C/[C@@H](C)[C@H]1CC[C@H]2[C@@H]3CCC4=CC(=O)CC[C@]4(C)[C@H]3CC[C@]12C)C(C)C,neuronal differentiation score,ReNCell VM [1]; library: Spectrum,inactive: 0
same,dopaminergic neuron differentiation score,ReNCell VM [2]; library: Spectrum,inactive: 0
Cc1ccc2c(=O)c3ccccc3n(CCCN)c2c1C,neuronal differentiation score,ReNCell VM [1]; library: Tocriscreen,inactive: 0
same,dopaminergic neuron differentiation score,ReNCell VM [2]; library: Tocriscreen,inactive: 0
N[C@@H](C(=O)O)[C@@H](O)[C@H](O)[C@H](O)CO,neuronal differentiation score,ReNCell VM [1]; library: Spectrum,inactive: 0
same,dopaminergic neuron differentiation score,ReNCell VM [2]; library: Spectrum,inactive: 0
O=C(CCCN1CCC(O)(c2ccc(Cl)cc2)CC1)c1ccc(F)cc1 [Haloperidol hydrochloride],neuronal differentiation score,ReNCell VM [1]; library: Tocriscreen,inactive: 0
same,dopaminergic neuron differentiation score,ReNCell VM [2]; library: Tocriscreen,inactive: 0
CCCCOc1cc(C(=O)OCCN(CC)CC)ccc1N [Benoxinate hydrochloride],neuronal differentiation score,ReNCell VM [1]; library: Prestwick,inactive: 1
same,dopaminergic neuron differentiation score,ReNCell VM [2]; library: Prestwick,inactive: 0
Cc1ccc(C(C)C)cc2c(C)ccc1-2,neuronal differentiation score,ReNCell VM [1]; library: Spectrum,inactive: 0
same,dopaminergic neuron differentiation score,ReNCell VM [2]; library: Spectrum,inactive: 0
OCCOCCN1CCN(C2=Nc3ccccc3Sc3ccccc32)CC1,neuronal differentiation score,ReNCell VM [1]; library: Spectrum,inactive: 0
same,dopaminergic neuron differentiation score,ReNCell VM [2]; library: Spectrum,inactive: 0
CCCCC(O)c1ccccc1 (configuration not stated) [Fenipentol],neuronal differentiation score,ReNCell VM [1]; library: Prestwick,inactive: 0
same,dopaminergic neuron differentiation score,ReNCell VM [2]; library: Prestwick,inactive: 0
COc1cc2c(cc1O)CC[C@@H]1[C@@H]2CC[C@]2(C)[C@@H](O)CC[C@@H]12 [2-Methoxyestradiol],neuronal differentiation score,ReNCell VM [1]; library: Tocriscreen,inactive: 0
same,dopaminergic neuron differentiation score,ReNCell VM [2]; library: Tocriscreen,inactive: 0
C=CCSCC1Nc2cc(Cl)c(S(N)(=O)=O)cc2S(=O)(=O)N1 (configuration not stated) [Althiazide],neuronal differentiation score,ReNCell VM [1]; library: Prestwick,inactive: 0
same,dopaminergic neuron differentiation score,ReNCell VM [2]; library: Prestwick,inactive: 0
COc1cc2ncnc(Nc3cccc(Cl)c3)c2cc1OC [Tyrphostin AG 1478],neuronal differentiation score,ReNCell VM [1]; library: LOPAC,inactive: 0
same,dopaminergic neuron differentiation score,ReNCell VM [2]; library: LOPAC,inactive: 0
CCCNC(C)(C)COC(=O)c1ccccc1 [Meprylcaine hydrochloride],neuronal differentiation score,ReNCell VM [1]; library: Prestwick,inactive: 0
same,dopaminergic neuron differentiation score,ReNCell VM [2]; library: Prestwick,inactive: 0
N=C(N)NCC1COC2(CCCCC2)O1 (configuration not stated) [Guanadrel sulfate],neuronal differentiation score,ReNCell VM [1]; library: Prestwick,inactive: 0
same,dopaminergic neuron differentiation score,ReNCell VM [2]; library: Prestwick,inactive: 0
OCCN(CCO)c1nc(N2CCCCC2)c2nc(N(CCO)CCO)nc(N3CCCCC3)c2n1,neuronal differentiation score,ReNCell VM [1]; library: Spectrum,inactive: 0
same,dopaminergic neuron differentiation score,ReNCell VM [2]; library: Spectrum,inactive: 0
C=C1C[C@]23C[C@@]1(O)CC[C@H]2[C@@]12C=C[C@H](O)[C@@](C)(C(=O)O1)[C@H]2[C@@H]3C(=O)O,neuronal differentiation score,ReNCell VM [1]; library: Spectrum,inactive: 0
same,dopaminergic neuron differentiation score,ReNCell VM [2]; library: Spectrum,inactive: 0
C#Cc1ccc2c(c1)C(=O)N(C)Cc1c(C(=O)OCCCOC(=O)c3ncn4c3CN(C)C(=O)c3cc(C#C)ccc3-4)ncn1-2 [Xli 093 hydrate],neuronal differentiation score,ReNCell VM [1]; library: LOPAC,inactive: 0
same,dopaminergic neuron differentiation score,ReNCell VM [2]; library: LOPAC,inactive: 0
O=C(O)c1cc(=O)c2ccccc2o1,neuronal differentiation score,ReNCell VM [1]; library: Spectrum,inactive: 0
same,dopaminergic neuron differentiation score,ReNCell VM [2]; library: Spectrum,inactive: 0

# Fetched one by one from the entries so far:
smiles,measurement,setting,value
CCCCC(=O)O[C@]1(C(=O)CO)CC[C@H]2[C@@H]3CCC4=CC(=O)CC[C@]4(C)[C@H]3[C@@H](O)C[C@@]21C,dopaminergic neuron differentiation score,ReNCell VM [2]; library: Spectrum,inactive: 0
C[C@]12CCC(=O)C=C1CC[C@@H]1[C@@H]2[C@@H](O)C[C@@]2(C)[C@H]1CC[C@]2(O)C(=O)COC(=O)CCC(=O)O [Hydrocortisone 21-hemisuccinate sodium],neuronal differentiation score,ReNCell VM [1]; library: LOPAC,inactive: 0
C=C1C[C@]23C[C@@]1(O)CC[C@H]2[C@@]12C=C[C@H](O)[C@@](C)(C(=O)O1)[C@H]2[C@@H]3C(=O)O,neuronal differentiation score,ReNCell VM [1]; library: Spectrum,inactive: 0
OCCOCCN1CCN(C2=Nc3ccccc3Sc3ccccc32)CC1,dopaminergic neuron differentiation score,ReNCell VM [2]; library: Spectrum,inactive: 0
